Results deposited as PubChem BioAssay AID602196 (INSERM, 2012).
Purpose: 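Modifiers of cisplatin sensitivity in A549 cells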. Cell system: human A549 lung cancer cells. Knock-down reagent: siRNA pair against human genes. Duration: 48 h transfection before cisplatin; time from cisplatin to read-out not stated. Treatment: cisplatin at a dose killing half of control-siRNA cells; exact dose and duration not given. Read-out: 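Cisplatin cell death as a shift from the 50% death seen with control siRNA; siRNAs toxic or growth-blocking alone scored 0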. Scale: two-siRNA summed score (-2 to +2): higher = both siRNAs protect from cisplatin killing; -2 means both sensitise; mean protection from cisplatin (shift in death): higher = protection from cisplatin killing. Rule for the call: 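siRNAs harmful alone (LDH or WST-1) get 0; others get +1 for less and -1 for more cisplatin killing; genes are active when the two siRNAs give the same sign, summing to ±2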. Calls: active = both siRNAs shift cisplatin killing the same way; inactive = no consistent shift, or siRNA harmful alone.
This is one part, drawn at random, of about 23,000 reagents tested. Over the whole deposit, 455 (2%) got an active call. 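Active includes both protection and sensitisation; some change values fall well beyond the stated -50 to +50 range.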 Not all columns of the deposit are shown. Reagent sequences are not shown. Not given: the amount of reagent.

What did the screen give for FNIP1?
two-siRNA summed score (-2 to +2): 0; mean protection from cisplatin (shift in death) (%): -10.2; Outcome: inactive

For FLJ90036, how do the results read?
two-siRNA summed score (-2 to +2): 0; mean protection from cisplatin (shift in death) (%): 1.6; Outcome: inactive

With ANAPC4, how do the results read?
two-siRNA summed score (-2 to +2): 0; mean protection from cisplatin (shift in death) (%): 1; Outcome: inactive

With LOC441340, how do the results read?
two-siRNA summed score (-2 to +2): -1; mean protection from cisplatin (shift in death) (%): -6.7; Outcome: inactive

With YIPF1, how do the results read?
two-siRNA summed score (-2 to +2): 0; mean protection from cisplatin (shift in death) (%): -4; Outcome: inactive

For FGD6, how do the results read?
two-siRNA summed score (-2 to +2): 0; mean protection from cisplatin (shift in death) (%): -4.1; Outcome: inactive

How did the screen score KIAA1786?
two-siRNA summed score (-2 to +2): 0; mean protection from cisplatin (shift in death) (%): 3.5; Outcome: inactive

What did the screen give for RHOB?
two-siRNA summed score (-2 to +2): 0; mean protection from cisplatin (shift in death) (%): 3.6; Outcome: inactive

How did the screen score TBCB?
two-siRNA summed score (-2 to +2): 0; mean protection from cisplatin (shift in death) (%): 2.1; Outcome: inactive

For LOC441310, what was measured?
two-siRNA summed score (-2 to +2): 1; mean protection from cisplatin (shift in death) (%): 17.8; Outcome: inactive

How did the screen score OSBPL8?
two-siRNA summed score (-2 to +2): 1; mean protection from cisplatin (shift in death) (%): 13.1; Outcome: inactive

For POMGNT1, how do the results read?
two-siRNA summed score (-2 to +2): 0; mean protection from cisplatin (shift in death) (%): 8; Outcome: inactive

Which result is listed for LOC286129?
two-siRNA summed score (-2 to +2): 0; mean protection from cisplatin (shift in death) (%): 14.6; Outcome: inactive

With OR6Q1, what does the deposit list?
two-siRNA summed score (-2 to +2): 0; mean protection from cisplatin (shift in death) (%): -3.1; Outcome: inactive

For SENP5, how do the results read?
two-siRNA summed score (-2 to +2): 0; mean protection from cisplatin (shift in death) (%): 2.1; Outcome: inactive

For RCAN2, what was measured?
two-siRNA summed score (-2 to +2): 0; mean protection from cisplatin (shift in death) (%): 1.9; Outcome: inactive

What did the screen give for BBS2?
two-siRNA summed score (-2 to +2): 0; mean protection from cisplatin (shift in death) (%): -0.5; Outcome: inactive

With LOC400567, what does the deposit list?
two-siRNA summed score (-2 to +2): 1; mean protection from cisplatin (shift in death) (%): 18.6; Outcome: inactive

What is on record for PCMTD2?
two-siRNA summed score (-2 to +2): 0; mean protection from cisplatin (shift in death) (%): 3.8; Outcome: inactive

With RPRD1A, what does the deposit list?
two-siRNA summed score (-2 to +2): 0; mean protection from cisplatin (shift in death) (%): 5.1; Outcome: inactive

Targets above whose target name begins with P or p (2):
POMGNT1 — two-siRNA summed score (-2 to +2) = 0; mean protection from cisplatin (shift in death) (%) = 8; Outcome = inactive
PCMTD2 — two-siRNA summed score (-2 to +2) = 0; mean protection from cisplatin (shift in death) (%) = 3.8; Outcome = inactive

Next reagents follow:
Which result is listed for MIPOL1?
two-siRNA summed score (-2 to +2): 0; mean protection from cisplatin (shift in death) (%): 8.2; Outcome: inactive

With CCDC97, how do the results read?
two-siRNA summed score (-2 to +2): 0; mean protection from cisplatin (shift in death) (%): 4.5; Outcome: inactive

For PKHD1L1, how do the results read?
two-siRNA summed score (-2 to +2): 0; mean protection from cisplatin (shift in death) (%): 1.1; Outcome: inactive

With MC4R, what does the deposit list?
two-siRNA summed score (-2 to +2): 0; mean protection from cisplatin (shift in death) (%): -6.1; Outcome: inactive

With LOC285422, what does the deposit list?
two-siRNA summed score (-2 to +2): 0; mean protection from cisplatin (shift in death) (%): 1.9; Outcome: inactive

How did the screen score BMP2?
two-siRNA summed score (-2 to +2): 1; mean protection from cisplatin (shift in death) (%): 15.2; Outcome: inactive

With CFAP107, what does the deposit list?
two-siRNA summed score (-2 to +2): 0; mean protection from cisplatin (shift in death) (%): 15.7; Outcome: inactive

For SLC60A1, what was measured?
two-siRNA summed score (-2 to +2): 0; mean protection from cisplatin (shift in death) (%): 5; Outcome: inactive

For JAK1, what does the deposit list?
two-siRNA summed score (-2 to +2): 0; mean protection from cisplatin (shift in death) (%): 10; Outcome: inactive

Which result is listed for NFAT5?
two-siRNA summed score (-2 to +2): 0; mean protection from cisplatin (shift in death) (%): 6.8; Outcome: inactive

What is on record for GFAP?
two-siRNA summed score (-2 to +2): 0; mean protection from cisplatin (shift in death) (%): 0.8; Outcome: inactive
